Test results from publication PMC10167121, “Completing the TRB family: newly characterized members show ancient evolutionary origins and distinct localization, yet similar interactions”.
Results are given in words; binding and its absence hold for the method and conditions named. Binding calls can cover weak binding; strength is not graded here. Sequences can lack the tags named with a protein. For some assays here: In cells and extracts the contact can be indirect.

Chains of the proteins cited; added tags and fusions are not shown. Lines headed by an entry give the natural chain unless they say otherwise; changes in a name come on top.
UniProt F4I7L1: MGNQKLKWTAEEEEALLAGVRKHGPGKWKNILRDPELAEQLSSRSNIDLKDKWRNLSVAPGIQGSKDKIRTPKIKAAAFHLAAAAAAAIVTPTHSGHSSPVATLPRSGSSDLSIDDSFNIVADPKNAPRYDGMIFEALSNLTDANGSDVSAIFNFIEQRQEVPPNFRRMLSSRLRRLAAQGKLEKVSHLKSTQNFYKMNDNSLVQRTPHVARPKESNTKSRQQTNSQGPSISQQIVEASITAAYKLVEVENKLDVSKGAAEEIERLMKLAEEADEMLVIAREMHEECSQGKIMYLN

B1: POT1a (hemagglutinin tag, 35S-labelled), in vitro translated (protein, UniProt Q56Y52 1-467)
chain: MAKKRESPKLIKIKDAIKLINQQVSLIGIVLEQREPKQCRNNDWICTLRIIDDTYPSPGLTVNVFSKTLEQLPQIKNHDDMILFTRIKMQTFDSGERVNAACSRWVSSFALFEGVDFVCYQCSTNFHEEEALYKSAMDDLRKVFAGCSQVIKAMQSISYRTKPCSEVFSFLREIKIGKRFDLVCRILHADEDTSAVFVWDGTDAPPASILAKRSEEDKAFSSLSVHTLLSRDVLLSFPTVGTILRVHLSSHLFYRVKPGDWVKLYHLLCEVDRGSWVIKVTSSTKVHHLAQDDRLVEKIMRIYDKRLSSKLGHISFWCFPSPPGLTETDDNCAPFVTLMDIITFPKVTCKYRCIVRVVAAYPWQVEDFCSDENRRHHQVLLTLEDSTATLEAFLCNKDAEYFWGLGFQDTETLRKKRNWLLGIRESSNFVAPRNPPWIECCILSYYTNKADPWNTRLYRIFGTRLLH
modifications: radioactively labelled using 35S-Met
B2: EMF2 (hemagglutinin tag, 35S-labelled), in vitro translated (protein, UniProt Q8L6Y4 1-631)
chain: MPGIPLVSRETSSCSRSTEQMCHEDSRLRISEEEEIAAEESLAAYCKPVELYNIIQRRAIRNPLFLQRCLHYKIEAKHKRRIQMTVFLSGAIDAGVQTQKLFPLYILLARLVSPKPVAEYSAVYRFSRACILTGGLGVDGVSQAQANFLLPDMNRLALEAKSGSLAILFISFAGAQNSQFGIDSGKIHSGNIGGHCLWSKIPLQSLYASWQKSPNMDLGQRVDTVSLVEMQPCFIKLKSMSEEKCVSIQVPSNPLTSSSPQQVQVTISAEEVGSTEKSPYSSFSYNDISSSSLLQIIRLRTGNVVFNYRYYNNKLQKTEVTEDFSCPFCLVKCASFKGLRYHLPSTHDLLNFEFWVTEEFQAVNVSLKTETMISKVNEDDVDPKQQTFFFSSKKFRRRRQKSQVRSSRQGPHLGLGCEVLDKTDDAHSVRSEKSRIPPGKHYERIGGAESGQRVPPGTSPADVQSCGDPDYVQSIAGSTMLQFAKTRKISIERSDLRNRSLLQKRQFFHSHRAQPMALEQVLSDRDSEDEVDDDVADFEDRRMLDDFVDVTKDEKQMMHMWNSFVRKQRVLADGHIPWACEAFSRLHGPIMVRTPHLIWCWRVFMVKLWNHGLLDARTMNNCNTFLEQLQI
modifications: radioactively labelled using 35S-Met
B3: TERT RNA interaction domain 1 fragment (RID1, 1-271 aa), yeast two-hybrid fusion (domain or fragment, UniProt Q9SPU7 1-271)
chain: MPRKPRHRVPEILWRLFGNRARNLNDAIVDLIPNRNIQPEQCRCRGQGCLGCSSDKPAFLLRSDDPIHYRKLLHRCFVVLHEQTPPLLDFSPTSWWSQREIVERIIEMMQSGCDCQNVICARYDKYDQSSPILELLTSSSWEFLLKRVGHDVMVYLLQQTSIFLPLLGKKHQQVSGPPLCIKHKRTLSVHENKRKRDDNVQPPTKRQWLSSAVDDCPKDDSATITPIVGEDVDQHREKKTTKRSRIYLKRRRKQRKVNFKKVDCNAPCITP
B4: VERNALIZATION 2 (VRN2), yeast two-hybrid fusion (protein, UniProt Q8W5B1 1-440)
chain: MCRQNCRAKSSPEEVISTDENLLIYCKPVRLYNIFHLRSLGNPSFLPRCLNYKIGAKRKRKSRSTGMVVFNYKDCNNTLQRTEVREDCSCPFCSMLCGSFKGLQFHLNSSHDLFEFEFKLLEEYQTVNVSVKLNSFIFEEEGSDDDKFEPFSLCSKPRKRRQRGGRNNTRRLKVCFLPLDSPSLANGTENGIALLNDGNRGLGYPEATELAGQFEMTSNIPPAIAHSSLDAGAKVILTTEAVVPATKTRKLSAERSEARSHLLLQKRQFYHSHRVQPMALEQVMSDRDSEDEVDDDVADFEDRQMLDDFVDVNKDEKQFMHLWNSFVRKQRVIADGHISWACEVFSRFYEKELHCYSSLFWCWRLFLIKLWNHGLVDSATINNCNTILENCRNTSVTNNNNNSVDHPSDSNTNNNNIVDHPNDIKNKNNVDNKDNNSRDK
B5: TERT telomerase essential N-terminal fragment (TEN, 1-233 aa), yeast two-hybrid fusion (domain or fragment, UniProt Q9SPU7 1-233)
chain: MPRKPRHRVPEILWRLFGNRARNLNDAIVDLIPNRNIQPEQCRCRGQGCLGCSSDKPAFLLRSDDPIHYRKLLHRCFVVLHEQTPPLLDFSPTSWWSQREIVERIIEMMQSGCDCQNVICARYDKYDQSSPILELLTSSSWEFLLKRVGHDVMVYLLQQTSIFLPLLGKKHQQVSGPPLCIKHKRTLSVHENKRKRDDNVQPPTKRQWLSSAVDDCPKDDSATITPIVGEDVD
B6: Protection of telomeres 1a (POT1a), yeast two-hybrid fusion (protein, UniProt Q56Y52 1-467)
chain: B1 chain
B7: Protection of telomeres 1b (POT1b), yeast two-hybrid fusion (protein, UniProt Q6NKX5 1-454)
chain: MEEERRDDYKFLRIQDAFKALHLHVNLIGVIVELGFSNGSDCSCTLKIVDPWYSGSGLPVKFVARTIRDLPRVESIGDIILLSRVKIVLINRKITALCNETTSSSFALFNGKHSVDSIPYQSSPKFLMREQDKNFLSNLREWMITYKFEDGSCCFTSLKDIKEGECSNLSCQIVHISKVYKDRWYLFVWDGTEMPPCNILVKSERLPLCVEPEMLPTYMLRKFPTFGSVLRIIVDRVSEKQAIHCLQPGQHVKLLNLFFQVNMGLWNATFTPSTKMQYTMSREMEAFSPQRMCGEKFSPRWNPIARCISRSHSEITGVAHDDAPFVSLMDILTYHNVTAKFRCVVRFIQVYPRDVRKLRDINGNIKLVAILEDATARIHASLYADEGEKFFGCDESDEEALVKKLNRLLGGEEMEKVPRNPPWVQCCLFSFYKHKMDQWESRRFRIFDTWINAS
B8: EMBRYONIC FLOWER 2 (EMF2), yeast two-hybrid fusion (protein, UniProt Q8L6Y4 1-631)
chain: B2 chain
B9: PWO2 N-terminal part (1-216 aa), yeast two-hybrid fusion (domain or fragment, UniProt P59278 1-216)
chain: MESNDDRNLEAINASVGRLVWVRRRNGSWWPGQTLVHDQVPDNSLVGPKVGTPIKLLGRDDVSVDWYILENSKTVKAFRCGEYDTCIEKAKASSSKKRSGKCTLREDAINNALKIENEHLAKEDDNLCNLSGEEDSKRCLSGKEDEDSGSSDAEETEDDELASAPEQLQSSISSQEMNNVGASKVQSKRRRTPNDSEDDGTEGVKRMRGLEDIGKE

These binders were tested against TRB5 (myc-tag), in vitro translated (A. thaliana) (assay: co-IP; in vitro translated proteins (TNT system): 35S-Met-labelled HA-tagged VRN2, EMF2 or POT1a mixed with myc-tagged TRB4 or TRB5, anti-myc antibody and Protein G magnetic particles; input, unbound and bound fractions on 10% SDS-PAGE).

binding	Binder
binds	B1
binds	B2

Each binder was assayed against TRB4 (myc-tag), in vitro translated (A. thaliana) (UniProt F4I7L1) in the same assay as above.

binding	Binder
binds	B1
binds	B2

The binders below were run against Telomere repeat binding protein 5 (TRB5), yeast two-hybrid fusion (A. thaliana) (assay: two-hybrid; Matchmaker GAL4-based system, S. cerevisiae PJ69-4a; growth on SD -Leu -Trp -His (with or without 1 mM or 3 mM 3-AT) or SD -Leu -Trp -Ade at 30 °C; empty vector as negative control).

binding	Binder
binds	B3
binds	B4
binds	B5
binds	B6
binds	B7
binds	B8

What follows are binders tested against Telomere repeat binding protein 4 (TRB4), yeast two-hybrid fusion (A. thaliana) (UniProt F4I7L1) in the same assay as above.

binding	Binder
binds	B3
binds	B4
binds	B5
binds	B6
binds	B7
binds	B9
binds	B8
